We go through one sequence from PMC5792436.

Chains of the proteins cited; added tags and fusions are not shown.
UniProt P19821, whole entry: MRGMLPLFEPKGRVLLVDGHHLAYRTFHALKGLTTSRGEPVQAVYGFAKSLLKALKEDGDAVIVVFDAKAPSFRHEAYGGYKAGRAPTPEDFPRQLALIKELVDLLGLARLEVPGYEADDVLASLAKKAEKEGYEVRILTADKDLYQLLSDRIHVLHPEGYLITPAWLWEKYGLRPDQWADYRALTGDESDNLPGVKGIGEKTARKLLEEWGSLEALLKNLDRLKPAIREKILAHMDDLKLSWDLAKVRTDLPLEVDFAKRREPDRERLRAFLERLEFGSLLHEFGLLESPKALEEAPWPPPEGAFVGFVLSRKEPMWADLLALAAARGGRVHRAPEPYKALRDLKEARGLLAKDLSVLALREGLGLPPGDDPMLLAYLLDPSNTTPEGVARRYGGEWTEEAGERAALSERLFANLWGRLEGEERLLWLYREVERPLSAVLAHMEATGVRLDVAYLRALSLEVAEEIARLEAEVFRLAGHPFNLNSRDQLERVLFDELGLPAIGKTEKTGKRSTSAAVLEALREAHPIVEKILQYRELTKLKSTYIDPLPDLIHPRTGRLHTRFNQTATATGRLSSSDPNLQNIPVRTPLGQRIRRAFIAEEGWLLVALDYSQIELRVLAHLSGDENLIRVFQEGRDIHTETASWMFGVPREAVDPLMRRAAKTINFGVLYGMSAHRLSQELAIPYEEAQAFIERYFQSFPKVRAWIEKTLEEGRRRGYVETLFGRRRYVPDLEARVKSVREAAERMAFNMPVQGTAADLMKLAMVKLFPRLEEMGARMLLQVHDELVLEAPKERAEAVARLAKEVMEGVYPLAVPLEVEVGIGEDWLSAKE

For at least one entry, the source does not settle the construct or the ends of the probe.

The Kd is the concentration at which binding is half-saturated.

The data set addresses Taq DNA polymerase, purified (pHis-Taq) (UniProt P19821). The data set can be described thus: EMSA. As to conditions: 2 nM DNA, no Mg2+, no detectable interaction up to 1000 nM Taq; 10 mM Tris-HCl pH 7.9, 50 mM KCl, 1 mM EDTA, 5% glycerol, 1 mM DTT, 25 ug/ml BSA; no MgCl2, no poly(dI-dC); 20 min at room temperature; 6% PAGE in 0.5X TBE; recombinant protein; protein details: His (inserted at NcoI site of pTrc-Taq); label: 5' biotin; single-stranded DNA. Background: Mobility shift assays separate free from complexed probe on a gel.

Turning to “TACCGAGCTCTTACGCGTGCCTCTGACTTGCCTCAGAGC [Bio-Olig2.5]”, the dissociation constant (Kd) is above 1000 nM.
